Reference: publication PMC4630568, “Arabidopsis LEAFY COTYLEDON1 controls cell fate determination during post-embryonic development” (Frontiers in Plant Science, 2015)
These are yes or no findings as the source states them, for the method shown. Some binding calls cover weakened binding; strength is not graded here. Sequences can lack the tags named with a protein.

Target: T1, LEC1 (LEAFY COTYLEDON1), yeast two-hybrid fusion in pGBKT7 (Arabidopsis) (UniProt Q9SFD8)
T1 sequence: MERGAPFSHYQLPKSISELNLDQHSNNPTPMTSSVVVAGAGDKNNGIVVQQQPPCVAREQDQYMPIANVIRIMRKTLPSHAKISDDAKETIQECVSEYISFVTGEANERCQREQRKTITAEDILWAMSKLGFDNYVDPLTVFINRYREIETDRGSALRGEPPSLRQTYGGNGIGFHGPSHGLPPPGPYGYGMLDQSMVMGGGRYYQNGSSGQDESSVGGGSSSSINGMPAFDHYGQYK
Test: two-hybrid; yeast AH109; LEC1 in pGBKT7 (bait), TCL2 in pGADT7 (prey); growth on SD/-Trp/-Leu/-His/-Ade medium

B1: TCL2, yeast two-hybrid fusion in pGADT7 (protein, UniProt B3H4X8 1-100)
chain: MDNTNRLRHLRSRKQSKFTLGDTAEVNSVKWEFINMTEQEEDLIFRMHRLVGDRWDLIAGRVVGREAKDIERYWIMRNCDHCSHKRRRVHKFYRFSISPP
B1 was tested, and the binding was “binds”.
